Some entries share one result that the patent states for a list of compounds.
Assay: DPPH free radical scavenging assay
Assay type: biochemical
Conditions: by extrapolation from regression analysis
Method: The DPPH assay was used to evaluate the free radical-scavenging of chlorophyllide. Briefly, DPPH (8 mg) was dissolved in methanol (100 mL) to obtain a stock solution of 80 μg/mL. Then, 2.95 mL of the working solution was mixed with 50 μL of sample. After incubation in a dark at room temperature for 20 min, the absorbance was measured at 517 nm. The DPPH scavenging effect (%) was determined using the following formula: […]
where Ac was the absorbance of the blank control, Ai was the absorbance in the presence of the samples, and Aj was the absorbance of the samples alone. Vitamin B2 was used as a reference standard compound.

chlorophyllin
EC50 (concentration that can inhibit 50% of DPPH free radicals): exceeded 400 μg/mL
